Measured values as given in article PMC6753486.
No constants are given. Whether binding was seen depends on the method and setting. In cells and extracts the contact can be indirect. Some results given as binding are weak or reduced against the parent protein; the word gives no strength. Sequences can lack the tags named with a protein.

Experiments:
[1] = biological target: T1, full length NRPD1 (Pol IV largest subunit) with C-terminal FLAG epitope (Arabidopsis thaliana) (UniProt Q9LQ02); experiment: co-IP; anti-FLAG agarose capture of FLAG-tagged NRPD1 proteins from plant lysate (50 mM Tris HCl pH 7.6, 150 mM NaCl, 5 mM MgCl2, 10% glycerol, 0.5 mM DTT, 0.1% IGEPAL), 2 h at 4°C, two washes; immunoblot with anti-NRP(D/E)2 and anti-RDR2; non-transgenic Col-0 as negative control
T1 sequence: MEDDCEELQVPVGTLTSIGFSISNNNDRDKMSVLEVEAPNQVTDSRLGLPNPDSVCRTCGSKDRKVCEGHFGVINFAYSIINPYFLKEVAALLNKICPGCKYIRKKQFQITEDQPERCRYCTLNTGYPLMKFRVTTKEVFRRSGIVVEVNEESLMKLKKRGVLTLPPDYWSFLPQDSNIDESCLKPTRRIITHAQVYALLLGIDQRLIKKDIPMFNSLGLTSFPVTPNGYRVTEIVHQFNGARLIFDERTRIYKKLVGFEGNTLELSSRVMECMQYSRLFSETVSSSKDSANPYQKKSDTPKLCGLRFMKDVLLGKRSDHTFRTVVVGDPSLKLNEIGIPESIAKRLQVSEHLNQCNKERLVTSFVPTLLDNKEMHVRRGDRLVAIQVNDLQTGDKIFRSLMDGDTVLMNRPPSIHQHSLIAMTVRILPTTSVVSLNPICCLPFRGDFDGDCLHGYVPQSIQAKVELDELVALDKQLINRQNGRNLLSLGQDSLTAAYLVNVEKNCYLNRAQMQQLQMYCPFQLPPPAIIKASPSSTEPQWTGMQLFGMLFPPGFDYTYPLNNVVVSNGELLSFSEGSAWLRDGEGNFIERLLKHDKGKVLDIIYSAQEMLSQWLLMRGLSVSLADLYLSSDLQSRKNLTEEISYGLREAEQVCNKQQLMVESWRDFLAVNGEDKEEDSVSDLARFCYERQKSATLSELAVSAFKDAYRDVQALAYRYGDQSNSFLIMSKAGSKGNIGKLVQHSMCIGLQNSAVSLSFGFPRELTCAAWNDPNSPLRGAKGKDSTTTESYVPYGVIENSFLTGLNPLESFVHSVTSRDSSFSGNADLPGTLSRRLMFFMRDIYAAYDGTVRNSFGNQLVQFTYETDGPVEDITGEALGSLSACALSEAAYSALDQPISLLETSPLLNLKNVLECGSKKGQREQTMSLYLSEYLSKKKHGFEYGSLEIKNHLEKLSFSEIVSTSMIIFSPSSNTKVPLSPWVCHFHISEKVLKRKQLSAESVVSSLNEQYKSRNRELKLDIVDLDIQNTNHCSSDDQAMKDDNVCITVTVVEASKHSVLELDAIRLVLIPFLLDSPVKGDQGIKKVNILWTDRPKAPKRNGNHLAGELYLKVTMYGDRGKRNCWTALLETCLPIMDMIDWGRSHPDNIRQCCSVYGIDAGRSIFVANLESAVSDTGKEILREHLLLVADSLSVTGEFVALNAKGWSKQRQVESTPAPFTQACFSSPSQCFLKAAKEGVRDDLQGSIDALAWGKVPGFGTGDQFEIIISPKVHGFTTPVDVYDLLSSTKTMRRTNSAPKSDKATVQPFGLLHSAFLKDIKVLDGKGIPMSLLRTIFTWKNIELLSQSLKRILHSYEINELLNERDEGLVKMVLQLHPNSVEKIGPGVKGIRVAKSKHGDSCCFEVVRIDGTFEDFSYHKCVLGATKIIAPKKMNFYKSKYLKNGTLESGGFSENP

[2] = biological target: T2, NRPD1 lacking the C-terminal DeCL domain (deletion of amino acids 1337-1453) with C-terminal FLAG epitope (Arabidopsis thaliana) (UniProt Q9LQ02); experiment: as above
T2 sequence: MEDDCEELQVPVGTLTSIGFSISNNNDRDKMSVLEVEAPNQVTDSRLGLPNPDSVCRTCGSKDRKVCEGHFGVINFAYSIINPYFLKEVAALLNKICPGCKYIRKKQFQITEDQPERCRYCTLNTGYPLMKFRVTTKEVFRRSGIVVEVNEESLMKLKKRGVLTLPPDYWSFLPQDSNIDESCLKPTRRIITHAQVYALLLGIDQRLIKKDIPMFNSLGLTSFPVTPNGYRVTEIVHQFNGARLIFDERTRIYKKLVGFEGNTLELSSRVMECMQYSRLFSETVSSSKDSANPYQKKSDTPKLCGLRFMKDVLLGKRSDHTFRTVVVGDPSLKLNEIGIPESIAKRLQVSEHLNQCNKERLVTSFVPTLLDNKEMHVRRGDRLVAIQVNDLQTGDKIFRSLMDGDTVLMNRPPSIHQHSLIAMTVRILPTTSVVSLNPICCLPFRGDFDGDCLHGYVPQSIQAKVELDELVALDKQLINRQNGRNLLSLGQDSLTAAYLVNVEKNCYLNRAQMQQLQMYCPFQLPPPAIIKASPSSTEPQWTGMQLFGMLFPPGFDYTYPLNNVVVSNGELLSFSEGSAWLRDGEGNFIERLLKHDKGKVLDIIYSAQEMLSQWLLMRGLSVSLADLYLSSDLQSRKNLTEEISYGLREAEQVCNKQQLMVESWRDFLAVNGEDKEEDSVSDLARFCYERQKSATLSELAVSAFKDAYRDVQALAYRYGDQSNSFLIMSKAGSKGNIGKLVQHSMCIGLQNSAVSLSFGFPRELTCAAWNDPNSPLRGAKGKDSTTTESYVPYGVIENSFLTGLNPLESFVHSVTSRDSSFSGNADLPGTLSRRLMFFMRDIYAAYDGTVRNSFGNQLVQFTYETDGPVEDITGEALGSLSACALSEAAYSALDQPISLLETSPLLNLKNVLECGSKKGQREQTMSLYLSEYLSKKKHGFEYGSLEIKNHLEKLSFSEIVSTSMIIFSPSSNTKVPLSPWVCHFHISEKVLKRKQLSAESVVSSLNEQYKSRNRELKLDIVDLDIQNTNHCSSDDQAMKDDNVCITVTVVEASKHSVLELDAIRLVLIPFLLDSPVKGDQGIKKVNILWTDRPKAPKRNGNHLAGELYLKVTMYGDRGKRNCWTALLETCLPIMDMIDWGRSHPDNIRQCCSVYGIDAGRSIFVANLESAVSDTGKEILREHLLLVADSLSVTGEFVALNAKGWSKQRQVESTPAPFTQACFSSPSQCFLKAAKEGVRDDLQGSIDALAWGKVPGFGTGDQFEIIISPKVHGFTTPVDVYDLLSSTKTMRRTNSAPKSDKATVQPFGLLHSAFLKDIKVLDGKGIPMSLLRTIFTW

binding [1]: binds
binding [2]: binds
B1: RNA … RNA POLYMERASE 2 (enzyme, UniProt O82504 1-1133)
chain: MVSETTTNRSTVKISNVPQTIVADELLRFLELHLGEDTVFALEIPTTRDNWKPRDFARVQFTTLEVKSRAQLLSSQSKLLFKTHNLRLSEAYDDIIPRPVDPRKRLDDIVLTVGFPESDEKRFCALEKWDGVRCWILTEKRRVEFWVWESGDCYKIEVRFEDIIETLSCCVNGDASEIDAFLLKLKYGPKVFKRVTVHIATKFKSDRYRFCKEDFDFMWIRTTDFSGSKSIGTSTCFCLEVHNGSTMLDIFSGLPYYREDTLSLTYVDGKTFASAAQIVPLLNAAILGLEFPYEILFQLNALVHAQKISLFAASDMELIKILRGMSLETALVILKKLHQQSSICYDPVFFVKTQMQSVVKKMKHSPASAYKRLTEQNIMSCQRAYVTPSKIYLLGPELETANYVVKNFAEHVSDFMRVTFVEEDWSKLPANALSVNSKEGYFVKPSRTNIYNRVLSILGEGITVGPKRFEFLAFSASQLRGNSVWMFASNEKVKAEDIREWMGCFRKIRSISKCAARMGQLFSASRQTLIVRAQDVEQIPDIEVTTDGADYCFSDGIGKISLAFAKQVAQKCGLSHVPSAFQIRYGGYKGVIAVDRSSFRKLSLRDSMLKFDSNNRMLNVTRWTESMPCFLNREIICLLSTLGIEDAMFEAMQAVHLSMLGNMLEDRDAALNVLQKLSGENSKNLLVKMLLQGYAPSSEPYLSMMLRVHHESQLSELKSRCRILVPKGRILIGCMDEMGILEYGQVYVRVTLTKAELKSRDQSYFRKIDEETSVVIGKVVVTKNPCLHPGDIRVLDAIYEVHFEEKGYLDCIIFPQKGERPHPNECSGGDLDGDQFFVSWDEKIIPSEMDPPMDYAGSRPRLMDHDVTLEEIHKFFVDYMISDTLGVISTAHLVHADRDPEKARSQKCLELANLHSRAVDFAKTGAPAEMPYALKPREFPDFLERFEKPTYISESVFGKLYRAVKSSLAQRKPEAESEDTVAYDVTLEEAGFESFIETAKAHRDMYGEKLTSLMIYYGAANEEEILTGILKTKEMYLARDNRRYGDMKDRITLSVKDLHKEAMGWFEKSCEDEQQKKKLASAWYYVTYNPNHRDEKLTFLSFPWIVGDVLLDIKAENAQRQSVEEKTSGLVSI
